In the supplement of paper PMC10849652:
This is one part of the list.

Sequences of proteins named here, by UniProt entry; tags and fusion partners are left off. A change or cut given only in a name is not applied to a line headed by its entry.
UniProt A6NFI3: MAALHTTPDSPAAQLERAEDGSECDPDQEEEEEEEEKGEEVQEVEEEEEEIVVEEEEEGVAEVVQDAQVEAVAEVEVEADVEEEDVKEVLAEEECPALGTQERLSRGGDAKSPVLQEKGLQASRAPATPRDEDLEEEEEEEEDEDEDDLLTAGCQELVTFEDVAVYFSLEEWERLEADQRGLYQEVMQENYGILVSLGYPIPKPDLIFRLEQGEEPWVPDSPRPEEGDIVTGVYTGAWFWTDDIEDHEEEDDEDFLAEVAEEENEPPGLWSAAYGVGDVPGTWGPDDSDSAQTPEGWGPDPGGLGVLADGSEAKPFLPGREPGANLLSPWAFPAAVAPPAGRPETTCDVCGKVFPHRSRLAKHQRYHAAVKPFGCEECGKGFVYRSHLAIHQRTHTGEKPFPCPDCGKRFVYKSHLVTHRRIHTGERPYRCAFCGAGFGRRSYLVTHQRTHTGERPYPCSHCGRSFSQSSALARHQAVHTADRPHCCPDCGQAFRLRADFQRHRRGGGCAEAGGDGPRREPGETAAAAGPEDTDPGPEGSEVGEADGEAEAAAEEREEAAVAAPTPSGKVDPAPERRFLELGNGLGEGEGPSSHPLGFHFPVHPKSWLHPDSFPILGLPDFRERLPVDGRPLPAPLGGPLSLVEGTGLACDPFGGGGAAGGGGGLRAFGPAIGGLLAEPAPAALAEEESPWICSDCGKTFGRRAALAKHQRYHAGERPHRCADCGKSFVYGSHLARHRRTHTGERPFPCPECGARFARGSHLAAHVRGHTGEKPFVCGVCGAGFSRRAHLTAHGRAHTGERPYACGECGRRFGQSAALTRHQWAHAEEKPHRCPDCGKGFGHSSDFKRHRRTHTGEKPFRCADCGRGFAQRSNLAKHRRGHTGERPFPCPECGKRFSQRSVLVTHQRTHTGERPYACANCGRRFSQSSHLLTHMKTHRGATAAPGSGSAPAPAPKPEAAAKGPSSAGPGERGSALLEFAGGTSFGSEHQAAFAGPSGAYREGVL
UniProt O43670: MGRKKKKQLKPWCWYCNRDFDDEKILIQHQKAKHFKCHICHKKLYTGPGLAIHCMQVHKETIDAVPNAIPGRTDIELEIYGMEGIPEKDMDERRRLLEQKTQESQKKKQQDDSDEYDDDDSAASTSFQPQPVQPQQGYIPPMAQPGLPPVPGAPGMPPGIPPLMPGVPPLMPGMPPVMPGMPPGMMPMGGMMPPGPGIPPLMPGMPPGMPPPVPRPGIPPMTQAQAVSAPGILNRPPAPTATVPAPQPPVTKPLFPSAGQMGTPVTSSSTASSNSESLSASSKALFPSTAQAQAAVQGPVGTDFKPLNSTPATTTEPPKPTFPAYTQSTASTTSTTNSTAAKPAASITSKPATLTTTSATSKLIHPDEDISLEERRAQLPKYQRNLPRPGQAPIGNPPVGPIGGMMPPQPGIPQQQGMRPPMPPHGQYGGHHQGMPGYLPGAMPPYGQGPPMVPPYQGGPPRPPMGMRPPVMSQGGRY
UniProt Q15942: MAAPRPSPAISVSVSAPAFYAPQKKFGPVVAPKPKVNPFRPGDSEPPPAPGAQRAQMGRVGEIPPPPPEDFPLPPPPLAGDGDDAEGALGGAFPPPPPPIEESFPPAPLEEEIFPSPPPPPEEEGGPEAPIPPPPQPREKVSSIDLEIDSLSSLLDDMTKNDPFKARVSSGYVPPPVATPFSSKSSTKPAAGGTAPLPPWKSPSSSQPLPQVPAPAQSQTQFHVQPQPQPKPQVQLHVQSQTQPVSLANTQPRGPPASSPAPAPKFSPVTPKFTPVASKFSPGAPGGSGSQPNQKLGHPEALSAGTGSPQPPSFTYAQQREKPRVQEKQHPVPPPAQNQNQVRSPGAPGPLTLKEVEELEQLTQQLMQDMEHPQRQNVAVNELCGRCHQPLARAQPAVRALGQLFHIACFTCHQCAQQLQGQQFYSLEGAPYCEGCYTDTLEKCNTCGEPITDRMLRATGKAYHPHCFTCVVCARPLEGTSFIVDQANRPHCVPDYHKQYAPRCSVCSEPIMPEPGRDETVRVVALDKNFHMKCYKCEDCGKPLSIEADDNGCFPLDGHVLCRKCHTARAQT
UniProt O43149: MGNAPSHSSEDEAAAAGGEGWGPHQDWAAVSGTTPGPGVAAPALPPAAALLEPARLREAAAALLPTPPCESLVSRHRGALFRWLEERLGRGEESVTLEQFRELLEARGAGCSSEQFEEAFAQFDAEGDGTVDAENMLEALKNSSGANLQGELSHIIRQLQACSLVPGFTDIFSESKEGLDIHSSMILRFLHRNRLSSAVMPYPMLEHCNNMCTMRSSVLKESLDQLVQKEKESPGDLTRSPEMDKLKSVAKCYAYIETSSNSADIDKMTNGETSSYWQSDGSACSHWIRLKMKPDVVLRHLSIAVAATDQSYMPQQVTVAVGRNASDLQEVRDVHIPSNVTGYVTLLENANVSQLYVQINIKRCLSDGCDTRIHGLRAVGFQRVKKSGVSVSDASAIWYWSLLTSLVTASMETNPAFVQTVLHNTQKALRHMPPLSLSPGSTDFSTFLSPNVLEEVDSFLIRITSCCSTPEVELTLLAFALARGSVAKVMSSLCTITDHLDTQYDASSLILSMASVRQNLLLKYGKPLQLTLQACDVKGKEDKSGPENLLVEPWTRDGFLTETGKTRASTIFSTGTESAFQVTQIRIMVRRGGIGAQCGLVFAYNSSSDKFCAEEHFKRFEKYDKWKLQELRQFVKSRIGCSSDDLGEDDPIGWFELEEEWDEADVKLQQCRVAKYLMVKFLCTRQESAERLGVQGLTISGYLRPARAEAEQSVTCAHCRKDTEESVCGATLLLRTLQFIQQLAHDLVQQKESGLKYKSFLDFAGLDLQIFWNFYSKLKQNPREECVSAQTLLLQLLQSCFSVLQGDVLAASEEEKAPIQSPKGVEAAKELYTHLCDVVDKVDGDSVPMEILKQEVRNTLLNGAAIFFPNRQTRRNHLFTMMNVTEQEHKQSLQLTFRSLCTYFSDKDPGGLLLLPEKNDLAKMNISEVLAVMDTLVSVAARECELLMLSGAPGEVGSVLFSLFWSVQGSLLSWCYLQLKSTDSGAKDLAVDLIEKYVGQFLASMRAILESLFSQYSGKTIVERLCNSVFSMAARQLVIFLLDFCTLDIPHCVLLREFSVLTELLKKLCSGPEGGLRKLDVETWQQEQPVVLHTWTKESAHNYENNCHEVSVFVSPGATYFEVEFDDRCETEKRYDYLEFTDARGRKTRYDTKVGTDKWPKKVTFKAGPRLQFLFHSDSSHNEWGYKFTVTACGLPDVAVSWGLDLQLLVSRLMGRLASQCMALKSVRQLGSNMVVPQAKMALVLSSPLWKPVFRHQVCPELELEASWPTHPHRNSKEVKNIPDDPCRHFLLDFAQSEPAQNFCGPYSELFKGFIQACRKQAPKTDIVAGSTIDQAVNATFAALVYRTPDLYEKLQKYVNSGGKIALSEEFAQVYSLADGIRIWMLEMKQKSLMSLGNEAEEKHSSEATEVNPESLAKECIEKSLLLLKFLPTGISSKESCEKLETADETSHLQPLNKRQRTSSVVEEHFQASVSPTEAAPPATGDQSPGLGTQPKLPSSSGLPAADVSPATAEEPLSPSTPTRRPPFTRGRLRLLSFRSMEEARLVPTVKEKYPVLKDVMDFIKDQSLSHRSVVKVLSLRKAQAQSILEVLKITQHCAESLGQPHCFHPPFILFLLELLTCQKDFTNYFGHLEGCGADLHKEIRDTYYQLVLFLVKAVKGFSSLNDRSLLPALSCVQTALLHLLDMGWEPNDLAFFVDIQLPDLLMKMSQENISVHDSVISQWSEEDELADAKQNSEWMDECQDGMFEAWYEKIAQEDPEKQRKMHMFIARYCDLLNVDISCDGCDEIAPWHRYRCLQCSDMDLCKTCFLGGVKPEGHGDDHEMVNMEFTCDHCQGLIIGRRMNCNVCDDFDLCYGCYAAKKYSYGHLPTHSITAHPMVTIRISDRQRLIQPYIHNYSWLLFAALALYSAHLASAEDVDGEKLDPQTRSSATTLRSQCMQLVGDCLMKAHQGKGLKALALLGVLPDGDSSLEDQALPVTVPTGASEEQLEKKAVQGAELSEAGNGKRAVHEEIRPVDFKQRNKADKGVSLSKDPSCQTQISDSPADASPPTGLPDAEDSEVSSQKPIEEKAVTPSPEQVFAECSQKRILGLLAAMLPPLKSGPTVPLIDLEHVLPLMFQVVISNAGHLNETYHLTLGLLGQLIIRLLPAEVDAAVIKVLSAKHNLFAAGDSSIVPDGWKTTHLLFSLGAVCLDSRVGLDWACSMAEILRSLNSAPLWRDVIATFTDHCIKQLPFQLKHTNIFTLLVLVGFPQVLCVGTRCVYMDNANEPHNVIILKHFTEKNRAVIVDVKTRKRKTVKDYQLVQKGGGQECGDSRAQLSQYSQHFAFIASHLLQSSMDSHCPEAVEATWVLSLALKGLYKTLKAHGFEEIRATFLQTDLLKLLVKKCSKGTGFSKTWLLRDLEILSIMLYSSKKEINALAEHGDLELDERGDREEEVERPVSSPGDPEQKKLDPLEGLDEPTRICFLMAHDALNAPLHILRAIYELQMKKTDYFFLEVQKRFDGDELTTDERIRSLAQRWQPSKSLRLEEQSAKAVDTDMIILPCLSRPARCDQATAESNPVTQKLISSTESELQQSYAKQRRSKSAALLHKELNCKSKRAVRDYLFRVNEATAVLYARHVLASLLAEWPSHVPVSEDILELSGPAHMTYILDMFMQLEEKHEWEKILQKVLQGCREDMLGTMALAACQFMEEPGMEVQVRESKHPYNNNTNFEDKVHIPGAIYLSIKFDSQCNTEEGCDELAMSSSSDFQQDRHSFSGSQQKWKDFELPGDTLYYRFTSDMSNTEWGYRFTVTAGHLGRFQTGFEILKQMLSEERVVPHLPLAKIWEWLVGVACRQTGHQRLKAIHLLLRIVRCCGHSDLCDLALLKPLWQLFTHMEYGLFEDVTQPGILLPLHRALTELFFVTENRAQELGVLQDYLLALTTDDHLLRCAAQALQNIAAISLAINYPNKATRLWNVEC
UniProt Q9Y5V0: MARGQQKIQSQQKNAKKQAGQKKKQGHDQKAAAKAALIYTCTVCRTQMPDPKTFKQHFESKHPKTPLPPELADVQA
UniProt O60232: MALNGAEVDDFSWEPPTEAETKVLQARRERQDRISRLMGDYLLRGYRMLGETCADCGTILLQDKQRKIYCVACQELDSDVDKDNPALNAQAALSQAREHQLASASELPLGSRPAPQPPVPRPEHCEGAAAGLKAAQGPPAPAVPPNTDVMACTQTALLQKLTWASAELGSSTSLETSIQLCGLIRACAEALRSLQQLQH

Key:
Experiment in all cases: log2 fold change, soluble protein after heating vs DMSO (PISA); higher = thermal stabilisation; K562 lysate, 10 uM; active = over 0.2 and 3.5 SD of the protein, either way, in both replicates (recomputed)
alvocidib = compound: CN1CC[C@H](c2c(O)cc(O)c3c(=O)cc(-c4ccccc4Cl)oc23)[C@H](O)C1 [alvocidib]
Procedure, shortened: (§1)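 Following dounce homogenisation of K562 pellets in PBS pH 7.4 with 1 mM MgCl2, crude extract at 1 mg/mL protein was incubated for 30 min with 10 μM compound. Aliquots were then heated for 3 min over 48°C-58°C and pooled, NP-40 was added to 0.5% at 4°C, and soluble protein was recovered as the supernatant at 21,000xg for 90 min. Channel-sum-equalised TMTpro 16plex LC-MS/MS quantified this protein. Each value, from duplicates, is a log-two fold change in thermal stability relative to solvent controls.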

Tubastatin A = compound: CN1CCc2c(c3ccccc3n2Cc2ccc(C(=O)NO)cc2)C1 [Tubastatin A]
Procedure, shortened: as §1

[1] = compound: CNC(=O)C1=CC=CC=C1NC2=NC(=NC=C2Cl)NC3=C(C=C(C=C3)N4CCOCC4)OC
Procedure, shortened: as §1

defactinib = compound: CNC(=O)c1ccc(Nc2ncc(C(F)(F)F)c(NCc3nccnc3N(C)S(C)(=O)=O)n2)cc1 [defactinib]
Procedure, shortened: as §1

[2] = compound: CNc1nc(-c2ccc3c(N)n[nH]c3c2)cc(N2C[C@@H](C(=O)NC3CCCCC3)CC[C@H]2C)n1
Procedure, shortened: as §1

encorafenib = compound: COC(=O)N[C@@H](C)CNc1nccc(-c2cn(C(C)C)nc2-c2cc(Cl)cc(NS(C)(=O)=O)c2F)n1 [encorafenib]
Procedure, shortened: as §1

[3] = compound: COC(=O)[C@H](CCSC)NC(=O)C1=C(C=C(C=C1)NC[C@H](CS)N)C2=CC=CC=C2
Procedure, shortened: as §1

alisertib = compound: COc1cc(Nc2ncc3c(n2)-c2ccc(Cl)cc2C(c2c(F)cccc2OC)=NC3)ccc1C(=O)O [alisertib]
Procedure, shortened: as §1

[4] = compound: COc1cc2nc(-c3cc(F)ccc3O)nc(N[C@@H]3CNC[C@H]3C(C)(C)O)c2cc1OC
Procedure, shortened: as §1

gefitinib = compound: COc1cc2ncnc(Nc3ccc(F)c(Cl)c3)c2cc1OCCCN1CCOCC1 [gefitinib]
Procedure, shortened: as §1

lapatinib = compound: CS(=O)(=O)CCNCc1ccc(-c2ccc3ncnc(Nc4ccc(OCc5cccc(F)c5)c(Cl)c4)c3c2)o1 [lapatinib]
Procedure, shortened: as §1

pictilisib = compound: CS(=O)(=O)N1CCN(Cc2cc3nc(-c4cccc5[nH]ncc45)nc(N4CCOCC4)c3s2)CC1 [pictilisib]
Procedure, shortened: as §1

crizotinib = compound: C[C@@H](Oc1cc(-c2cnn(C3CCNCC3)c2)cnc1N)c1c(Cl)ccc(F)c1Cl [crizotinib]
Procedure, shortened: as §1

[5] = compound: C[C@H](C1=CC=C(C=C1)C(=O)NC2=C3C=CNC3=NC=C2)N
Procedure, shortened: as §1

duvelisib = compound: C[C@H](Nc1ncnc2nc[nH]c12)c1cc2cccc(Cl)c2c(=O)n1-c1ccccc1 [duvelisib]
Procedure, shortened: as §1

gandotinib = compound: Cc1cc(Nc2cc(CN3CCOCC3)c3nc(C)c(Cc4ccc(Cl)cc4F)n3n2)n[nH]1 [gandotinib]
Procedure, shortened: as §1

tozasertib = compound: Cc1cc(Nc2cc(N3CCN(C)CC3)nc(Sc3ccc(NC(=O)C4CC4)cc3)n2)n[nH]1 [tozasertib]
Procedure, shortened: as §1

doramapimod = compound: Cc1ccc(-n2nc(C(C)(C)C)cc2NC(=O)Nc2ccc(OCCN3CCOCC3)c3ccccc23)cc1 [doramapimod]
Procedure, shortened: as §1

bafetinib = compound: Cc1ccc(NC(=O)c2ccc(CN3CC[C@H](N(C)C)C3)c(C(F)(F)F)c2)cc1Nc1nccc(-c2cncnc2)n1 [bafetinib]
Procedure, shortened: as §1

[6] = compound: Cc1cccc(CC(=O)N2CCc3c2ccc(-c2cn(C)c4ncnc(N)c24)c3F)n1
Procedure, shortened: as §1

Measured: log2 fold change

ZNF316 (UniProt A6NFI3)
inactive: alvocidib -0.132 | Tubastatin A -0.036 | [1] -0.02 | defactinib -0.027 | [2] -0.077 | encorafenib 0.014 | [3] -0.001 | alisertib -0.005 | [4] -0.08 | gefitinib -0.083 | lapatinib -0.167 | pictilisib -0.052 | crizotinib -0.074 | [5] -0.215 | duvelisib 0.082 | gandotinib 0.073 | tozasertib -0.037 | doramapimod -0.016 | bafetinib 0.098 | [6] 0.184

ZNF207 isoform 4 (UniProt O43670)
inactive: alvocidib -0.031 | Tubastatin A 0.041 | [1] -0.001 | defactinib -0.015 | [2] 0.038 | encorafenib -0.032 | [3] -0.044 | alisertib -0.01 | [4] 0.015 | gefitinib -0.067 | lapatinib -0.008 | pictilisib -0.058 | crizotinib 0.03 | [5] 0.002 | duvelisib -0.036 | gandotinib 0.03 | tozasertib -0.041 | doramapimod -0.053 | bafetinib -0.021 | [6] -0.086

ZYX (UniProt Q15942)
inactive: alvocidib -0.01 | Tubastatin A 0.047 | [1] 0.008 | defactinib -0.014 | [2] 0.031 | encorafenib -0.021 | [3] -0.075 | alisertib -0.021 | [4] 0.003 | gefitinib 0.012 | lapatinib 0.031 | pictilisib -0.038 | crizotinib 0.008 | [5] -0.025 | duvelisib 0.027 | gandotinib 0.049 | tozasertib -0.039 | doramapimod 0.007 | bafetinib 0.047 | [6] -0.016

ZNF428 (UniProt M0QXZ5)
inactive: alvocidib 0.035 | Tubastatin A 0.005 | [1] -0.061 | defactinib 0.052 | [2] 0.172 | encorafenib -0.036 | [3] -0.072 | alisertib -0.151 | [4] -0.028 | gefitinib 0.119 | lapatinib 0 | pictilisib -0.113 | crizotinib 0.006 | [5] 0.083 | duvelisib 0.114 | gandotinib 0.025 | tozasertib 0.002 | doramapimod 0.021 | bafetinib -0.015 | [6] -0.08

ZZEF1 (UniProt O43149)
inactive: alvocidib 0.005 | Tubastatin A -0.025 | [1] 0.017 | defactinib -0.022 | [2] 0.017 | encorafenib 0.022 | [3] 0.065 | alisertib -0.022 | [4] 0.007 | gefitinib 0.008 | lapatinib -0.023 | pictilisib -0.024 | crizotinib -0.092 | [5] -0.113 | duvelisib 0.028 | gandotinib 0.038 | tozasertib -0.011 | doramapimod 0.029 | bafetinib -0.083 | [6] 0.123

ZNF706 (UniProt Q9Y5V0)
inactive: alvocidib -0.02 | Tubastatin A 0.107 | [1] -0.009 | defactinib -0.039 | [2] 0.07 | encorafenib -0.119 | [3] -0.064 | alisertib -0.008 | [4] -0.005 | gefitinib -0.016 | lapatinib -0.013 | pictilisib 0.023 | crizotinib 0.023 | [5] -0.029 | duvelisib 0.033 | gandotinib 0.07 | tozasertib 0.061 | doramapimod 0.067 | bafetinib 0.028 | [6] 0.035

ZNRD2 (UniProt G3V1B8)
inactive: alvocidib 0.035 | Tubastatin A 0.112 | [1] 0.057 | defactinib 0.123 | [2] 0.171 | encorafenib 0.15 | [3] -0.041 | alisertib -0.002 | [4] -0.067 | gefitinib -0.176 | lapatinib 0.169 | pictilisib -0.07 | crizotinib -0.005 | [5] -0.061 | duvelisib 0.005 | gandotinib 0.235 | tozasertib 0.109 | doramapimod 0.04 | bafetinib 0.014 | [6] 0.255

ZNRD2 (UniProt O60232)
inactive: alvocidib 0.055 | Tubastatin A 0.092 | [1] 0.072 | defactinib 0.165 | [2] -0.069 | encorafenib 0.051 | [3] -0.067 | alisertib 0.011 | [4] -0.007 | gefitinib -0.15 | lapatinib 0.084 | pictilisib -0.055 | crizotinib 0.021 | [5] -0.025 | duvelisib 0.081 | gandotinib -0.028 | tozasertib 0.059 | doramapimod 0.04 | bafetinib -0.051 | [6] 0.009
